# Source: the supplement of paper PMC12259267, “Disruption of the KLHL37–N-Myc complex restores N-Myc degradation and arrests neuroblastoma growth in mouse models” (The Journal of Clinical Investigation, 2025)
# Counter-ions that a name gives are not always drawn. Some of the results follow. Single values are uncertain, as repeats are few or missing. Square brackets hold non-standard residues; d marks the D form. Peptide text beside a SMILES is read from it. * marks the point of attachment. Benzoyl(4-tBu) = CC(C)(C)c1ccc(C(=O)*)cc1; Lys(Et2) = CCN(CC)CCCC[C@H](N)C(=O)O
# Tested on: SK-N-BE(2)
# Assay: inhibition of N-Myc immunofluorescence signal per cell relative to control (fraction); higher = stronger N-Myc protein reduction
# Conditions: 1 µM; 9 h
row,SMILES,inhibition of N-Myc immunofluorescence signal per cell
1,CC(C)C[C@H](NC(=O)CNC(=O)c1cc(Cl)ccc1Cl)B1OC(=O)C(CC(=O)O)(CC(=O)O)O1 [Ixazomib citrate],-0.0211
2,CCOc1cccc(F)c1C#Cc1cn([C@@H]2O[C@H](CNS(N)(=O)=O)[C@@H](O)[C@H]2O)c2ncnc(N)c12 [TAS4464 (hydrochloride)],-0.335
3,CCCc1cc(C)[nH]c(=O)c1CNC(=O)c1cc(-c2ccc(N3CCN(C)CC3)nc2)nc2c1cnn2C(C)C,-0.375
4,CCN1C(=O)C=CC1=O [N-Ethylmaleimide],-0.0245
5,Nc1cccc2nnn(C3CCC(=O)NC3=O)c(=O)c12 (stereo not given),0.186
6,CCC[C@H](NC(=O)/C(C#N)=C/c1cccc(Br)n1)c1ccccc1 [Degrasyn],0.146
7,Cc1cc(Cl)ccc1OCCCC(=O)NO [Droxinostat],0.195
8,Nc1ccc(SCC(=O)Nc2ccc3nc(NC(=O)c4ccc(C(F)(F)F)cc4)sc3c2)cc1 [ZM223 (hydrochloride)],0.0142
9,Cc1ccc(C(=O)Nc2cnc(N3CCC(C(N)=O)(N4CCCCC4)CC3)c(C(=O)O)c2)cc1,0.122
10,"C#CCOCC(=O)N[C@H](C(=O)N1C[C@H](O)C[C@H]1C(=O)NCc1ccc(-c2scnc2C)cc1)C(C)(C)C [(S,R,S)-AHPC-propargyl]",-0.0632
11,CCCCc1nc2cc(/C=C/C(=O)NO)ccc2n1CCN(CC)CC [Pracinostat],-0.126
12,CN1CCc2c(c3ccccc3n2Cc2ccc(C(=O)NO)cc2)C1 [Tubastatin A (Hydrochloride)],-0.0421
13,O=C1CCc2c(ccc3ccccc23)O1 [Splitomicin],0.0504
14,Cc1ccc(S(=O)(=O)Nc2cc(C(F)(F)F)ccc2C(=O)Nc2nc(-c3ccccc3)cs2)cc1,0.0848
15,Cc1cc2c(C(N)=O)cccc2n1-c1nc2c(c(NCc3ccccc3)n1)COCC2,0.152
16,O=C(NC1CC1)C(=O)C(Cc1ccccc1)NC(=O)[C@H]1CCC(=O)N1Cc1ccccc1 (stereo not given in full) [Alicapistat],0.0934
17,Cn1cc(C(=O)Nc2ccc([C@@H]3C[C@H]3NCC3CC3)cc2)cn1,-0.0194
18,Cc1ccc(/C=C2\SC(=S)N(CCCCCC(=O)Nc3ccc(C(=O)O)c(O)c3)C2=O)cc1,-0.0132

# Copied from the list.
# Under inhibition of N-Myc immunofluorescence signal per cell, Nc1ccc(SCC(=O)Nc2ccc3nc(NC(=O)c4ccc(C(F)(F)F)cc4)sc3c2)cc1 [ZM223 (hydrochloride)] reads 0.0142
# Under inhibition of N-Myc immunofluorescence signal per cell, Cc1cc(Cl)ccc1OCCCC(=O)NO [Droxinostat] reads 0.195

# The list continues:

row,SMILES,inhibition of N-Myc immunofluorescence signal per cell
1,Cc1cc(C)cc(C(=O)NOCCCCCC(=O)NO)c1,-0.181
2,CCN(CC)CCCC[C@H](NC(=O)[C@H](CC(C)C)NC(=O)[C@H](C)NC(=O)[C@H](Cc1ccccc1)NC(=O)c1ccc(C(C)(C)C)cc1)C(=O)N[C@@H](CO)C(=O)OC ({Benzoyl(4-tBu)}-FAL[Lys(Et2)]S-OMe),0.141
3,O=C(O)CNC(=O)c1c(O)c2ccccc2n(OCC2CC2)c1=O [Desidustat],-0.0164
4,O=C(NN=Cc1c(O)ccc2ccccc12)c1ccncc1,-0.256
5,CC[C@@H]1/C=C(\C)C[C@H](C)C[C@H](OC)[C@H]2O[C@@](O)(C(=O)C(=O)N3CCCC[C@H]3C(=O)O[C@H](/C(C)=C/[C@@H]3CC[C@@H](O)[C@H](OC)C3)[C@H](C)[C@@H](O)CC1=O)[C@H](C)C[C@@H]2OC [Ascomycin],-0.01
6,O=C(NC[C@H](O)CN1CCc2ccccc2C1)c1cc(NC2COC2)ncn1,-0.0188
7,CC(=O)N[C@H](C(=O)N1C[C@H](O)C[C@H]1C(=O)NCc1ccc(-c2scnc2C)cc1)C(C)(C)S [VH032 thiol],0.275
8,Cc1nn(-c2ccc3nnc(C)n3n2)c(C)c1CCC(=O)N1CCC(Cc2ccccc2)CC1,-0.00265
9,O=C(c1ccc(Cl)cc1Cl)n1nnc2ccccc21,-0.0622
10,C=CS(=O)(=O)Nc1ccccc1-c1ccc(C(=O)N2CCC(O)(Cn3cnc4c(cnn4C)c3=O)CC2)cc1,0.101
11,O=C(O)CNC(=O)C1=C(O)CCN(Cc2ccc(Oc3ccc(Cl)cc3)nc2)C1=O,0.192
12,COC(=O)CN(c1ccc(CN(c2ccc(OCc3ccc(C)cc3)c(C(=O)OC)c2)S(=O)(=O)Cc2ccccc2)cc1)S(C)(=O)=O,0.233
13,CCCCN(Cc1ccc(C(=O)NO)cc1)C(=O)Nc1ccccc1 [Nexturastat A],0.0987
14,c1ccc(C2CN3CCSC3=N2)cc1 (stereo not given) [Tetramisole (hydrochloride)],-0.0517
15,CCCC(NC(=O)/C(C#N)=C/c1nc(Cl)ccc1Cl)c1ccc(OCCN2CCOCC2)cc1 (stereo not given),0.0795
16,CCCCCCCCCCCCCCCc1cccc(O)c1C(=O)O [Anacardic Acid],-0.133
17,CN(C)c1ccc(C(=O)NCCCCCCC(=O)NO)cc1,0.123
